Experimental findings from US9090599B2, “Heteroarylmethyl amides” (Hoffman-La Roche Inc., priority 2010, dated 2015) are described below.

Sequences of proteins named here, by UniProt entry; tags and fusion partners are left off.
UniProt P34972, whole entry: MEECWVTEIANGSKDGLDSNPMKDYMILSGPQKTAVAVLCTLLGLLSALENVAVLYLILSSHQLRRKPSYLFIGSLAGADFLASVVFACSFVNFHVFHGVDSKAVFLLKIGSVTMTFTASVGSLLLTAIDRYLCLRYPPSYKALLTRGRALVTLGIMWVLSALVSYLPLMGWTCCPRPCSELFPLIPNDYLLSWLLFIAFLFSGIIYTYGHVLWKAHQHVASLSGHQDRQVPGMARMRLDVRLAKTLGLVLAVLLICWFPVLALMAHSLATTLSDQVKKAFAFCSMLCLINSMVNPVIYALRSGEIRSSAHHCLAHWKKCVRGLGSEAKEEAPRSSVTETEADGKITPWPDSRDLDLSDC
UniProt P21554, whole entry: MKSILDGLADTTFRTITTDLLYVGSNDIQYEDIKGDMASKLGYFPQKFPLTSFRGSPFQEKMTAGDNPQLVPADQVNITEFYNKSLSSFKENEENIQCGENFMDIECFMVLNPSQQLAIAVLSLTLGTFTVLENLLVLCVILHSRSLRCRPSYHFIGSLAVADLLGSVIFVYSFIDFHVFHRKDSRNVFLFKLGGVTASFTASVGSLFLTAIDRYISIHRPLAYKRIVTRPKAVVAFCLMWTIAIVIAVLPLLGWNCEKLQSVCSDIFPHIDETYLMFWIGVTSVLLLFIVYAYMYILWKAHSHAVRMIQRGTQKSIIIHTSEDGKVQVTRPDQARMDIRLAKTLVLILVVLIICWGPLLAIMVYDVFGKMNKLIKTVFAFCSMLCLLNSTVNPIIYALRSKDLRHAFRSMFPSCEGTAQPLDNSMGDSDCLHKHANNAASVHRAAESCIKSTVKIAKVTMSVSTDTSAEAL

One assay addresses T1, human CB2 receptor (Homo sapiens, UniProt P34972).
T1 construct: expressed in transfected cells; host or cells: human embryonic kidney (HEK) cells, Semliki Forest Virus system, membrane preparations
The experiment in a line: CB2 receptor affinity, [3H]-CP-55,940 displacement, HEK cell membranes. It counts as binding. The following applies: 10 μM compound, radioligand [3H]-CP-55,940. As to the method:
The affinity of the compounds of the invention for cannabinoid CB2 receptors was determined using membrane preparations of human embryonic kidney (HEK) cells in which the human CB2 receptor is transiently transfected using a Semliki Forest Virus system in conjunction with [^3H]-CP-55,940 as radioligand. After incubation of freshly prepared cell membrane preparation with the [^3H]-ligand, with or without addition of compounds of the invention, separation of bound and free ligand was performed by filtration over glass fiber filters. Radioactivity on the filter was measured by scintillation counting.
(§1) The ability of the compounds to displace the radioligand [^3H]-CP-55,940 was measured at a concentration of 10 μM and values provided as [% inhibition @ 10 μM] both for the CB 1 and CB2 receptor assay, The lower % inhibition is, the lower the likelihood of side effects based on CB1 or CB2 receptor inhibition is.

Another assay addresses T2, human CB1 receptor (Homo sapiens, UniProt P21554).
T2 construct: expressed in transfected cells; host or cells: human embryonic kidney (HEK) cells, Semliki Forest Virus system, membrane preparations
The experiment in a line: CB1 receptor affinity, [3H]-CP-55,940 displacement, HEK cell membranes. It counts as binding. The following applies: 10 μM compound, radioligand [3H]-CP-55,940. As to the method: The affinity of the compounds of the invention for cannabinoid receptors was determined using membrane preparations of human embryonic kidney (HEK) cells in which the human CB1 receptor is transiently transfected using a Semliki Forest Virus system in conjunction with [3H]-CP-55,940 as radioligand. After incubation of freshly prepared cell membrane preparation with the [^3H]-ligand, with or without addition of compounds of the invention, separation of bound and free ligand was performed by filtration over glass fiber filters. Radioactivity on the filter was measured by scintillation counting.
as §1

For the next assay, the system named is ABCA1 protein. Briefly: Detection of upregulation of ABCA1 protein in THP-1 macrophage cells (ApoA-I binding, high content imaging). It counts as cell-based. The following applies: 24 hrs with compound, AlexaFluor 647 ApoA-I binding, read-out: ABCA1 protein increasing efficacy EC50. As to the method:
The ability of compounds of the invention to increase the level of ABCA1 protein is determined in replicate cultures of THP-1 macrophage cells in 96-well microplates. Cells are plated at an initial density of 100,000 cells/well in 100 μl medium and differentiated to adherent macrophages with the addition of PMA (100 nM) for 68 hrs in 10% fetal bovine serum, 3 μl/L of b-mercaptoethanol, RPMI-1640 medium. Then, cells are incubated with RPMI-1640 medium containing 1% FCS, 25 μg/ml acetylated LDL, for 24 hours at 37°. Following incubation with acetylated LDL, cells are washed twice with 50 μl PBS and incubated with 100 μl of RPMI-1640 medium containing the compound of interest solubilized in DMSO for an additional 24 hrs. The final DMSO concentration in presence of cells is maintained at 0.5%. […] Fixed stained cells are washed and kept in PBS at 4° C. and can be read immediately until one month after preparation. […]
Imaging and data collection were performed on an OPERA confocal microplate imaging reader using a 20× water immersion objective and UV360 or 405 laser to identify the cell nuclei and a 635 laser to identify the fluorescent ApoA-I. Eight fields of view are captured per well. […] Background fluorescence detected in control wells without ApoA-I was subtracted. […]

`COc1cc(CNC(=O)c2cc(-c3ccc(Cl)cc3)c(O[C@@H](C)C(F)(F)F)nn2)on1` [Example 24, (S)-5-(4-chlorophenyl)-N-((3-methoxyisoxazol-5-yl)methyl)-6-(1,1,1-trifluoropropan-2-yloxy)pyridazine-3-carboxamide]: the values for the inhibition at 10 µM at human CB2 receptor and at human CB1 receptor were 16% and 39%, respectively.

Consider `Cc1cc(-c2cc(C(=O)NCc3nc(C(F)(F)F)no3)ncc2OCC(F)(F)F)ccc1Cl` [Example 77, 4-(4-chloro-3-methylphenyl)-5-(2,2,2-trifluoroethoxy)-N-((3-(trifluoromethyl)-1,2,4-oxadiazol-5-yl)methyl)picolinamide], for which the EC50 in the assay with ABCA1 protein was 0.33 µM. Further, the figures for the inhibition at 10 µM on human CB2 receptor and on human CB1 receptor were 11% and 4%, respectively.
